Here are results for 1 substance from patent US20080193932A1.

Amino acid sequences for entries named in this document (tags omitted). Residues count along the entry.
UniProt P53762: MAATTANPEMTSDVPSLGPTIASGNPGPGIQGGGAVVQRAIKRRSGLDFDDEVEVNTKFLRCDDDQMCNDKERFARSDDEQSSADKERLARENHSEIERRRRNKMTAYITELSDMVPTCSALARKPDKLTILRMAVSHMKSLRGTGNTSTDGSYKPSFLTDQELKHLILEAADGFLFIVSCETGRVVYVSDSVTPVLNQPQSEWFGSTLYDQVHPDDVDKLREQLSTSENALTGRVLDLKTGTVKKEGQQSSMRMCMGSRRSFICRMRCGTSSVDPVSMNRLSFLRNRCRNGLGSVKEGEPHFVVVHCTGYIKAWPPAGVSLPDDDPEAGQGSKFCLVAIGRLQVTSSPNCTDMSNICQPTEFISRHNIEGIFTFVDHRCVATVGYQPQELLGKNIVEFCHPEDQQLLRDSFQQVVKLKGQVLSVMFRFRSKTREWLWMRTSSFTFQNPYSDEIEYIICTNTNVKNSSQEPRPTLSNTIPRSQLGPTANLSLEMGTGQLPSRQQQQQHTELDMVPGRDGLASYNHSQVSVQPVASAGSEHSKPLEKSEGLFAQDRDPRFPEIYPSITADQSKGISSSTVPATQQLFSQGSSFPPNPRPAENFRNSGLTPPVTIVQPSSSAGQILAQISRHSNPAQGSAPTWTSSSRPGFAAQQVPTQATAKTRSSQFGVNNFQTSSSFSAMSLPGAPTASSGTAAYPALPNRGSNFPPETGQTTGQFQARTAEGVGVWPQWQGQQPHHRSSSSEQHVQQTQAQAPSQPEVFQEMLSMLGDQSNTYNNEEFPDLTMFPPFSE
UniProt P30561, residues 1-805: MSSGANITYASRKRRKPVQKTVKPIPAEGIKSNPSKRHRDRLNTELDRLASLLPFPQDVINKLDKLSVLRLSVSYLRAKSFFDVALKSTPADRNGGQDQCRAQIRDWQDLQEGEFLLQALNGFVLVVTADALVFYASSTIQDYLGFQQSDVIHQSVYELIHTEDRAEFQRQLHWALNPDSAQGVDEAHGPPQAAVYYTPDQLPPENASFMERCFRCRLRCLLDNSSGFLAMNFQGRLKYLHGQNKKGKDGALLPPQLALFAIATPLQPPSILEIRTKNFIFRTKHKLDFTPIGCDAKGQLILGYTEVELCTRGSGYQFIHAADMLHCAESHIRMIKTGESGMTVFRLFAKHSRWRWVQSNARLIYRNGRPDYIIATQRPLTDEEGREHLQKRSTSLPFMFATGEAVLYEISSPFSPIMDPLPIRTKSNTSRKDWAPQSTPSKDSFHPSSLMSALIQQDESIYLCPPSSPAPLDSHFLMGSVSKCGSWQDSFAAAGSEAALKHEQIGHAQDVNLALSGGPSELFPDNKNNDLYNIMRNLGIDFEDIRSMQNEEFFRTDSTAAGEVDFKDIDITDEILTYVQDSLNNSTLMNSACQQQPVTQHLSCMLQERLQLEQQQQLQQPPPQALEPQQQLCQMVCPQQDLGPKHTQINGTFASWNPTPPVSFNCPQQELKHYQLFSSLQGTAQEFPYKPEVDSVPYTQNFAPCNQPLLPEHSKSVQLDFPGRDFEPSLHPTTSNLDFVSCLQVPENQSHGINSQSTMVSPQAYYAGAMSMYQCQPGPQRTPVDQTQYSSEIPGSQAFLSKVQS

Results are given in words; binding and its absence hold for the method and conditions named. For some assays here: In cells and extracts the contact can be indirect. Some entries that bind do so weakly or less than the wild type.

Experiment [1] concerns the target murine ARNT, translated in vitro in rabbit reticulocyte lysate from cDNA in pcDNA3 (mouse) (UniProt P53762). Briefly: electrophoretic mobility shift with DRE oligonucleotide, AhR and ARNT in RRL.
Experiment [2] has the same target. Briefly: co-immunoprecipitation with anti-AhR antibody of in vitro translated AhR and Arnt mixed in RRL (DMSO, TCDD, EGCG, TCDD plus EGCG), SDS-PAGE, phosphorImager.

Turning to “murine aryl hydrocarbon receptor (AhR), translated in vitro in rabbit reticulocyte lysate from cDNA in pcDNA3 (from UniProt P30561 1-805)”, the binding entry in experiment [1] and in experiment [2] was “binds” in each case.
